These are yes or no findings as the source states them, for the method shown. In cells and extracts the contact can be indirect. Some entries that bind do so weakly or less than the wild type.
Molecular target: M1 muscarinic receptor, CFP-labelled (M1R-CFP) (UniProt P11229)
Experiment: FRET or BRET; live HEK293-tsA201 cells transfected with M1R-CFP, YFP-Gαq, Gβ1 and Gγ2; FRET measured in unpatched cells, patched cells without spermine and patched cells with 3 mM spermine in the pipette; room temperature

By UniProt entry, the sequences of proteins in these tests, tags left out.
UniProt P50148: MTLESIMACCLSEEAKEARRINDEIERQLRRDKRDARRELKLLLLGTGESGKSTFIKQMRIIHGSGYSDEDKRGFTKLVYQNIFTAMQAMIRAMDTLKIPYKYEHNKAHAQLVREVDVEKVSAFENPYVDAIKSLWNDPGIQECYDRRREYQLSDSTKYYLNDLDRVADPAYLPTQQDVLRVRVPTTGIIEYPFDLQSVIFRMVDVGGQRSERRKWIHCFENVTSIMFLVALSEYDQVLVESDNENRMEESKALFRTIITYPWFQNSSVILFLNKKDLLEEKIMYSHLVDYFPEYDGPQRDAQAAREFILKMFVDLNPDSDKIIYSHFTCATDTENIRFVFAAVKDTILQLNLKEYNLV

binding: binds
Substance: Gαq, YFP-labelled (YFP-Gαq) (from UniProt P50148 1-359)
